# Results are given in words; binding and its absence hold for the method and conditions named. In cells and extracts the contact can be indirect. These calls come from enrichment with a bait or labelling near it, and not all partners need be listed.
# B1: RBP47b (endogenous) (protein, UniProt Q0WW84 1-435)
# chain: MQTTNGSDSTLATSGATPPNQQTPPPPQQWQQQQQQQQQWMAAMQYPPAAAMMMMQQQQMLMYPHQYVPYNQGPYQQHHPQLHQYGSYQQHQHQQHKAIDRGSGDDVKTLWVGDLLHWMDETYLHSCFSHTGEVSSVKVIRNKLTSQSEGYGFVEFLSRAAAEEVLQNYSGSVMPNSDQPFRINWASFSTGEKRAVENGPDLSVFVGDLSPDVTDVLLHETFSDRYPSVKSAKVVIDSNTGRSKGYGFVRFGDENERSRALTEMNGAYCSNRQMRVGIATPKRAIANQQQHSSQAVILAGGHGSNGSMGYGSQSDGESTNATIFVGGIDPDVIDEDLRQPFSQFGEVVSVKIPVGKGCGFVQFADRKSAEDAIESLNGTVIGKNTVRLSWGRSPNKQWRGDSGQQWNGGYSRGHGYNNGGGYANHHDSNNYHGEN
# Target: FUST1-TurboID (Arabidopsis thaliana) (UniProt F4JFL5)
# Assay: proximity labelling; TurboID; FUST1-TurboID seedlings labelled at 37 °C for 1 h with 50 μM biotin; streptavidin magnetic beads and mass spectrometry; YFP-TurboID/Col-0 as background control; four biological replicates
binder,measurement,value
B1,binding,binds
